Source: PubChem BioAssay AID1508600 (Functional Genomics Laboratory (NCATS/FGL), 2020)
Hit rate of the full screen: of about 53,000 sequences, about 3,700 (7%) were called active.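 Rule for the calls: active = gene knockdowns whose robust z-score for IL-1 alpha signal is at least 2 or at most -2, so actives lie on both sides; inactive = the rest.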 The list shows a part of the results.

assay: Components of the Cytosolic LPS Sensing Pathway: Gene Identification via Genome-wide siRNA Screen; conditions: RAW264.7 macrophages, IL-1a HTRF, actives lie on both sides, screened at 100 nM (by protocol), cells primed 5 h with Pam3CSK4 first;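 note: robust z of the log signal after scaling to non-targeting control siRNA wells of the plate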
Summary of the method: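 Mouse macrophage line RAW264.7 is transfected with siRNA (100 nM final), grown 48h, primed with TLR ligand Pam3CSK4 5 h and given intracellular LipidA 24 h. IL-1a in supernatant is read by HTRF and viability by luminescence.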

z-score, inactive:
GGGAGGAAUUUGAUAAGAUTT against Nudt21 -0.924
CGAUUUGCCCAAUAAAGAATT against Scn9a 0.223
GGAUUUUCAAUUCAUACCCTT against Psmb1 -0.189
CCUAACUCACAACAAUUACTT against Olfr304 -0.496
GGAGUUGCCAUGCUCAACATT against Olfr808 0.193
GUUACCUCAGUGUUAUACUTT against Olfr45 1.7
GGACUUCAAGGACUUCUACTT against Crtap 0.112
GCUAUUAGAGAGGACUAAGTT against Ccdc9b 0.201
GGAAAUGACUCAUUUACAGTT against Smc1a -1.81
GGGACUUAUGUACAACUUCTT against Idua 1.53
GGCUGCUCAUAUUGGUCAATT against Sphk2 0.826
GGCUCUGCUGGAUAUCAUGTT against Med24 -1.08
GGUACAGUGCAUCGACAUGTT against Eng 0.879
GGAGAUGAUUAAGUCUGGATT against Pkm -0.308
GGAUUACCCAUUUGUUCCUTT against Adam4 1.38
GGAUGUGGUUUUCACUGACTT against Cat -0.325
GGAAAAAAAACACUGACUGTT against Hoxa5 1.05
GGACACUGUCCAGAAGUUGTT against Rmnd5a -0.212
GGAAGAAUGUAGGAGGAAGTT against Sln 0.246
CCUAUUACCAGUCUUAUGATT against Zfp458 -0.279
GGAAUCUUUAUGUCGGCACTT against Tgfbrap1 -0.802
CCACAGAUUACAUUUAUCCTT against Sephs1 -1.19
GCGCAACUGAAAUAAAUGATT against Hoxc9 0.763
GGAGAGGUAGACUUCCUGUTT against Fam83a 0.552
GCUACCAUCGGUUUUCCGATT against Cdc6 1.13
GGAAUUCUAGACAAUCAAGTT against Ctso 0.993
GGCCAAGAAAAACUACUAUTT against Kcnk5 -0.706
GCUAUUUUCGUCACUUUCUTT against Tssk1 0.494
CCGUUACAGUUAAAUUUACTT against Per3 0.856
CCUUGUGUAUGAAAUACUUTT against Taf1b -0.282
GGUUGGAUUAUGCAUAUUUTT against Serp1 0.186
GGCUAGGUAGACCAUAGAGTT against Nat8l 0.375
GGUGGUUCGAUAUGAGGCATT against Prom2 -1.64
CCCAAUGACAAUAAAGACCTT against Mmp25 -0.936
GGGAGUGGGAUUUUGCCUUTT against Sfn 0.0269
GUUACUUUGAUGUUGUCUATT against Pdgfrl 0.817
CCUUCAACUAUGGCAAAUATT against Cacul1 -0.241
GGUAUUAAAGACUACUCCATT against Glrx5 0.821
GGAGUAUCUUAGGAGUGAATT against Ybey -0.394
UUGUUCAAGAGCUAGAGAUTT against Atg2a 0.811
GGCUCUUGGGAGAUUUAAATT against Sp5 1.85
CCAAUCCAACAGCAUAUUUTT against Vkorc1 -0.742
GGCAGCUUGUAAAAAUCCATT against Amer1 -1.28
GCAAUAAUAGAAUGAGAAGTT against Ott 0.00108
GGCAAAAAGGGCAUUGUCCTT against Naip1 -0.946
GGAUCUGAAUGACUUUGUGTT against Sowahb 0.378
GGGAGUUUUCAGACAUUCUTT against Lingo4 1.12
GGGCAAAAAAGGUCUAUUCTT against Rfpl4 0.44
GGUCAAAAAUCAAGUUUACTT against Ovol2 0.162
GGCUUAUUUUUCUUCAGUUTT against Ext1 -0.585
GGAAAUUACUUUGAUACUCTT against Rfx3 1.5
GAGGAUUCUGUAGGUCUUCTT against Defb19 0.28
GGCUUUCUAUACGUGUGCUTT against Olfr1161 -1.41
GGUGCCAAUGACAUAUUGGTT against H2-M10.5 0.909
GAUGUUCUUUGUCCACAUGTT against Olfr666 -0.325
CCUUCAGCUUCCUUUUUACTT against Skint11 1.05
GAAGGAGAAGGAAGAGUUGTT against Cadps 1.08
CGAAGGCUUUUGAAUUCAATT against Pcdh17 0.41
CGCAUCAUAUUCUGAUUCCTT against Rmnd5b 0.138
GGCUGAGUCUACCAACAGUTT against Tns4 -1.91
GGCCUUGCUUCGAUGUAGUTT against Gemin7 -0.206
GCCCUACACCUGUAUUACATT against Tas1r3 -0.964
GGAUAUUCGAGCAACCUUUTT against Pcdhb18 -0.571
GGCAAUUCGAAUUUUGGUUTT against Rtraf 0.891
CCAUCUGAGAACAUCAUUGTT against Gm11507 0.114
GGCUGCUUCAGAUUUUCACTT against Naalad2 -0.0554
GGCUUAAAUGCGUUCUACATT against Slc25a3 0.0986
GCCAAAUUAGGUGACACUATT against Rgcc -1.71
GGCCUUUCUAGAGCUGUGGTT against Rinl -1.37
GGCGGUGAUGGAAUGAACATT against Plod2 0.706
CCACAUUGUAGGCAACCAATT against Hpd -1.06
GCUAAUGGCAGAGUAACCUTT against Pcdhga1 1.09
GCCAGUUACGCGGACAUUUTT against Rasgrf2 -0.348
GGAUAAGGUCCAGUACUUGTT against Mapk13 -1.32
GCACAGGUGAGCUCUUUGATT against Nudt10 -1.12
CCGUGGUUUCUACAGUGUUTT against Ppp4c -0.535
GGUAGAAGAUUCAAAAUCUTT against Canx 0.465
GGAGUGGUGUGUCAUUGAUTT against Impact -0.663
GGACAAAAGACACAUGUUGTT against Miip -0.674
GCUUCUUAUGGUCACUUAATT against Asb12 1.46
GGCUCUACCUUAACCUAUATT against Aamdc -0.563
CGACUCUCCAUCCUUAACATT against Dlx4 -1.4
GGCCUGUGACAUUCAAUGCTT against Tctn2 -0.422
GGUGUCAGGGCAGUGUAAATT against Bach1 0.749
GGUAGAAACCUCUACUGUCTT against Tmem169 0.363
GAUUCUCAUCUCAAUAAGCTT against Serpinb9g 0.439
GGCCAAUGAUGAUAACAAATT against Ctnnd2 1.34
GCAUUUCGUACAGCAGAAATT against Pip4k2c -0.691
GGGCUUGUGGCUUUAGUAUTT against Ccdc184 1.58
GGGUUUUCCACGAUGGUUGTT against Phf24 -0.331
GGUAUAUGAAAGAUUGUCATT against Vps26a 0.213
GCCACAACUGGCACGUUACTT against Mbd3 -0.817
GGGUCGAAAUUGGGAUCCATT against Vps45 0.383
CCAAAUGACAGCUAUGGCCTT against Gtf2ird2 -0.312
GGAUAACUCCUUAUUUAACTT against Teddm3 1.25
GGAAUUCCAGACACCCAUCTT against Elof1 -0.69
CCCAUGUUUAUGUUGCUGATT against Olfr467 0.251
GCUUUUGACACUUAUAUGATT against Ptk7 -0.299
GCCCAAGUGUGAUAAAUGCTT against Ntn4 0.874

Already shown: entries from further up.
z-score, inactive:
GGCCAAGAAAAACUACUAUTT against Kcnk5 -0.706
GCUAUUUUCGUCACUUUCUTT against Tssk1 0.494
CCGUUACAGUUAAAUUUACTT against Per3 0.856
CCUUGUGUAUGAAAUACUUTT against Taf1b -0.282
GGUUGGAUUAUGCAUAUUUTT against Serp1 0.186
GGCUAGGUAGACCAUAGAGTT against Nat8l 0.375
GGUGGUUCGAUAUGAGGCATT against Prom2 -1.64
CCCAAUGACAAUAAAGACCTT against Mmp25 -0.936
GGGAGUGGGAUUUUGCCUUTT against Sfn 0.0269
GUUACUUUGAUGUUGUCUATT against Pdgfrl 0.817
CCUUCAACUAUGGCAAAUATT against Cacul1 -0.241
GGUAUUAAAGACUACUCCATT against Glrx5 0.821
GGAGUAUCUUAGGAGUGAATT against Ybey -0.394
UUGUUCAAGAGCUAGAGAUTT against Atg2a 0.811
GGCUCUUGGGAGAUUUAAATT against Sp5 1.85
CCAAUCCAACAGCAUAUUUTT against Vkorc1 -0.742
GGCAGCUUGUAAAAAUCCATT against Amer1 -1.28
GCAAUAAUAGAAUGAGAAGTT against Ott 0.00108
GGCAAAAAGGGCAUUGUCCTT against Naip1 -0.946
GGAUCUGAAUGACUUUGUGTT against Sowahb 0.378
GGGAGUUUUCAGACAUUCUTT against Lingo4 1.12
GGGCAAAAAAGGUCUAUUCTT against Rfpl4 0.44
GGUCAAAAAUCAAGUUUACTT against Ovol2 0.162
GGCUUAUUUUUCUUCAGUUTT against Ext1 -0.585
GGAAAUUACUUUGAUACUCTT against Rfx3 1.5
GAGGAUUCUGUAGGUCUUCTT against Defb19 0.28
GGCUUUCUAUACGUGUGCUTT against Olfr1161 -1.41

Next part.

z-score, active:
GCGGUUUCGAACAAUCACGTT against Rab8a -2.4
GGAGUGUUUUGCAGUUUUATT against Dcstamp 4.39
GGUUAGGUUGAUGAAUAAGTT against Eif4ebp2 2.46
GGAAAGAUCAUGGACAAGUTT against Dtna 2.06
GGACCGGUUUAUUUGGCGGTT against Mmp2 3.43
GGCAAAGUUGUCCUAAGGUTT against Rab27b 2.54
GAAGGCCAAUGAUCGGGAGTT against Neurog3 -2.1
GGAAGAGGUCUUUAAUACATT against Kif4 2.86
GGAUAAAGAAGGACUCAAATT against Tpbpb -2.16
